The values below are quoted from earlier work in publication PMC4900804, “Allosteric modulation in monomers and oligomers of a G protein-coupled receptor” (eLife, 2016).

Each structure is given as a SMILES string.

In the data set the test system is M2 receptor in Sf9 membranes. The note with it: cited from earlier work.

Consider `CC[N+](CC)(CC)CCOc1cccc(OCC[N+](CC)(CC)CC)c1OCC[N+](CC)(CC)CC` [gallamine], for which the F1 was −1.51, the F2 was 2.51 ± 0.82, the “nH(1)” value was 0.97 ± 0.30 and the “nH(2)” value was 0.80 ± 0.14.
